According to doi:10.1101/2020.11.24.395905:
These are yes or no findings as the source states them, for the method shown. In cells and extracts the contact can be indirect. A result given as binding can be weak or reduced; the word gives no strength. Tags and fused reporters may be left off the sequences shown.

Target: T1, Orco:GFP (odour receptor coreceptor fused to GFP) (Drosophila) (UniProt Q9VNB5)
T1 sequence: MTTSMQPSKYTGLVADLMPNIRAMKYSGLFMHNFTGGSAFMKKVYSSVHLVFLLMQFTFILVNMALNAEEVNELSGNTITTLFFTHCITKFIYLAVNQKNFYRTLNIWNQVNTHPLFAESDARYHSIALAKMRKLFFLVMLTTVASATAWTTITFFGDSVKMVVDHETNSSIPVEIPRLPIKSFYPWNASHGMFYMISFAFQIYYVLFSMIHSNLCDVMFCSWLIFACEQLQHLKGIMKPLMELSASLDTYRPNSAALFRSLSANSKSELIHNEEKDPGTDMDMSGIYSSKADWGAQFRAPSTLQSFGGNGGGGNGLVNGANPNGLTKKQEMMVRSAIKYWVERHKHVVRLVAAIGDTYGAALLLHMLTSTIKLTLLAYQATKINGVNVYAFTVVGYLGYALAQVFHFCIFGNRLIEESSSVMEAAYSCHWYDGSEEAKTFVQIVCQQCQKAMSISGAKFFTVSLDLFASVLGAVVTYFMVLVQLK
Assay: co-IP

binding: binds
Substance: DmKAP (kinesin associated protein, accessory subunit of kinesin-2) (Drosophila (endogenous in adult heads))
